Four substances from PMC5613952 can be followed below.

Protein sequences, listed by entry. Tags and fused reporters are not part of them.
UniProt Q14839: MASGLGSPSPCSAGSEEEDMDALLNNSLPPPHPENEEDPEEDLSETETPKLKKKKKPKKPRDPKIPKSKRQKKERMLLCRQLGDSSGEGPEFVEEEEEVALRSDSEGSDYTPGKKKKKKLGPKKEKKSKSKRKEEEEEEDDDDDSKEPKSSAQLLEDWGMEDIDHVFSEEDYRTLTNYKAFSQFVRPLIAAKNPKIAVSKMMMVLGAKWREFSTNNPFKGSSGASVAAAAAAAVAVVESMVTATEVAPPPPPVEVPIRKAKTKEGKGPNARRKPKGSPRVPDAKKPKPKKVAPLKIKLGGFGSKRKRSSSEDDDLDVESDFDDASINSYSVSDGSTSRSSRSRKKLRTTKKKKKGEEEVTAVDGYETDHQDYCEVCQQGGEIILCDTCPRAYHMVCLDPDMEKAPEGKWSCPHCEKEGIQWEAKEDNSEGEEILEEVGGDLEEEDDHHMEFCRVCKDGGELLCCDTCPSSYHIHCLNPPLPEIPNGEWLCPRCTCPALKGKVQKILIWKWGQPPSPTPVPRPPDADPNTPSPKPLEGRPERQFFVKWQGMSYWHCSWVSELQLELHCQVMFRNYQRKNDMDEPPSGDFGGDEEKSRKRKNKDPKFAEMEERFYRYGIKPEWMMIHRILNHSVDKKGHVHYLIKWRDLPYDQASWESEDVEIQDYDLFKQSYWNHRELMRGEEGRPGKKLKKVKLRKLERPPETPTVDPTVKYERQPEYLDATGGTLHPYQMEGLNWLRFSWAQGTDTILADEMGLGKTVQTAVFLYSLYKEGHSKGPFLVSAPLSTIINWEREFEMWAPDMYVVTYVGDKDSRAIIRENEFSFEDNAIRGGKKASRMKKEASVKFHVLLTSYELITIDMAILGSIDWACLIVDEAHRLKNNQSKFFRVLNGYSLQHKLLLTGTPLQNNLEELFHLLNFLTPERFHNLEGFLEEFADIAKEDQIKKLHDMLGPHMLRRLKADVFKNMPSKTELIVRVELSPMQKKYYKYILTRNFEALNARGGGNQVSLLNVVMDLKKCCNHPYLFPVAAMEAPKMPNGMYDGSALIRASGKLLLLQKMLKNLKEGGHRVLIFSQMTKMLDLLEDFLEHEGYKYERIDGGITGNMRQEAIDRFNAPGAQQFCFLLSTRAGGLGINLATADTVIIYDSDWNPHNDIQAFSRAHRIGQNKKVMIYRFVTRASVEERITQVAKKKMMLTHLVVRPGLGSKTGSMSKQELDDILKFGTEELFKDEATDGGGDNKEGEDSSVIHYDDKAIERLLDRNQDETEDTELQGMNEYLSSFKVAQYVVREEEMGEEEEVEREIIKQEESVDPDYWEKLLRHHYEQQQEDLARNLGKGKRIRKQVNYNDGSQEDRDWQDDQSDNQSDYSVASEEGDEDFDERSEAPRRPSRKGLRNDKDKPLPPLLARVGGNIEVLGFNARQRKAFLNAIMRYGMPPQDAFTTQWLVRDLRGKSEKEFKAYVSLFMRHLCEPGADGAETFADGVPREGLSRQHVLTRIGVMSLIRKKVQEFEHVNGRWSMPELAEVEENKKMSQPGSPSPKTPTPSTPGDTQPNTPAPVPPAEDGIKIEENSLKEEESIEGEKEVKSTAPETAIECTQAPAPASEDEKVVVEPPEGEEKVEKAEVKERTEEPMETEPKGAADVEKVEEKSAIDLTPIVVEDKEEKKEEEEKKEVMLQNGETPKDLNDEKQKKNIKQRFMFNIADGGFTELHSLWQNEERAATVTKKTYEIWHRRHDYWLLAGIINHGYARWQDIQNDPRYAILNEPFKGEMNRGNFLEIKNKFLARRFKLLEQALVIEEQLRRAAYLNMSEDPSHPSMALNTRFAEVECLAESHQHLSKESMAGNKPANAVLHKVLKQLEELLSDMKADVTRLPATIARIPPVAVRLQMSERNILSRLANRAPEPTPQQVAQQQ
UniProt P46937: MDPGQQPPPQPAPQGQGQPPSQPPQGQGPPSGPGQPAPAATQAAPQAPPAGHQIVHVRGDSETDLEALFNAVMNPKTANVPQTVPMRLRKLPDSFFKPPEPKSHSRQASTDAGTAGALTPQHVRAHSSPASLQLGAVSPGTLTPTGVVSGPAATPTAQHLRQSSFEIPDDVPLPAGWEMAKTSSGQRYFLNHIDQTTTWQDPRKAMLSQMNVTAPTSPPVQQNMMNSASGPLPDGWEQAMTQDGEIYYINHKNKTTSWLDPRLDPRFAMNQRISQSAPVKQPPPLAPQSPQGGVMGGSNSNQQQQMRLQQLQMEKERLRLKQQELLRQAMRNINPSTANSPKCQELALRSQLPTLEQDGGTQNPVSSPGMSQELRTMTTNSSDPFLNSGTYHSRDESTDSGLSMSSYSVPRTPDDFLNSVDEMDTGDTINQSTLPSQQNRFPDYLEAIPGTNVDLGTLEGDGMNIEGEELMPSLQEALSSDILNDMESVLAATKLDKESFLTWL
UniProt O60264: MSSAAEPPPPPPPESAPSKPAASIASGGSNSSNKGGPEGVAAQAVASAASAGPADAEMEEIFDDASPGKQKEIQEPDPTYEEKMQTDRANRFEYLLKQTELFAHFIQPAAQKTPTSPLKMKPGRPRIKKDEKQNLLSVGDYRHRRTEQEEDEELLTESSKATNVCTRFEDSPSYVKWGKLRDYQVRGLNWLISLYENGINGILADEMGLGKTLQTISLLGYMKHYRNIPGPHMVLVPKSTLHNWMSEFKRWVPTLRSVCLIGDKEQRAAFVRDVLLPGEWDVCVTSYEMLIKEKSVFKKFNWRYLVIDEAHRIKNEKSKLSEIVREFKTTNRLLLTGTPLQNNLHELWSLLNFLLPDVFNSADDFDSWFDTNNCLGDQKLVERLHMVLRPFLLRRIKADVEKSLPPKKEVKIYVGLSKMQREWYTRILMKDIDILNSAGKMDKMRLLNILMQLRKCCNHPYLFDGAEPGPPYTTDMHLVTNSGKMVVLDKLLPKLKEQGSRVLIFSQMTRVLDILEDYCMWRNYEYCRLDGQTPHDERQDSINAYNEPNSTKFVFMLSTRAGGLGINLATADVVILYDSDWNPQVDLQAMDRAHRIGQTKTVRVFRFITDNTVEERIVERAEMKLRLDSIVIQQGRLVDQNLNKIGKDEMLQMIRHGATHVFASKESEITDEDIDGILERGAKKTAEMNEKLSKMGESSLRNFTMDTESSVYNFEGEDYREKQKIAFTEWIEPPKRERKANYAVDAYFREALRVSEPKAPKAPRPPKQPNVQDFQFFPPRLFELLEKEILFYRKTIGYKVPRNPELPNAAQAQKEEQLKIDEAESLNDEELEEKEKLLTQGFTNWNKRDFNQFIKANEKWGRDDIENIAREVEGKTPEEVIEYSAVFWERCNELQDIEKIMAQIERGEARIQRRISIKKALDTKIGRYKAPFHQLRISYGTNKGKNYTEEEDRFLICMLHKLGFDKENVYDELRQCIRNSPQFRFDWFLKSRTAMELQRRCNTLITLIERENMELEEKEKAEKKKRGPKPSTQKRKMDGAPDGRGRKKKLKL
UniProt P45973: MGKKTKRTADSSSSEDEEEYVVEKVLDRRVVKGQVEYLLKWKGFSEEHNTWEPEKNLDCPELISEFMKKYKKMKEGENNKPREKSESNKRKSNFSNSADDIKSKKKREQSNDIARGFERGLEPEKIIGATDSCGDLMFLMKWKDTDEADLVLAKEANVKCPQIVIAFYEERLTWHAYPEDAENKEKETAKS

Results are given in words; binding and its absence hold for the method and conditions named. Binding seen in cells or lysates may run through a third protein. Here binding means that the protein was enriched with, or labelled near, the bait; the list need not be complete. Where a sequence is shown, tags or fusion partners need not be part of it.

The experiment has as its target T1, MTA3 with V5 tag (MTA3V5), metastasis-associated protein 3 (UniProt Q9BTC8).
T1 sequence: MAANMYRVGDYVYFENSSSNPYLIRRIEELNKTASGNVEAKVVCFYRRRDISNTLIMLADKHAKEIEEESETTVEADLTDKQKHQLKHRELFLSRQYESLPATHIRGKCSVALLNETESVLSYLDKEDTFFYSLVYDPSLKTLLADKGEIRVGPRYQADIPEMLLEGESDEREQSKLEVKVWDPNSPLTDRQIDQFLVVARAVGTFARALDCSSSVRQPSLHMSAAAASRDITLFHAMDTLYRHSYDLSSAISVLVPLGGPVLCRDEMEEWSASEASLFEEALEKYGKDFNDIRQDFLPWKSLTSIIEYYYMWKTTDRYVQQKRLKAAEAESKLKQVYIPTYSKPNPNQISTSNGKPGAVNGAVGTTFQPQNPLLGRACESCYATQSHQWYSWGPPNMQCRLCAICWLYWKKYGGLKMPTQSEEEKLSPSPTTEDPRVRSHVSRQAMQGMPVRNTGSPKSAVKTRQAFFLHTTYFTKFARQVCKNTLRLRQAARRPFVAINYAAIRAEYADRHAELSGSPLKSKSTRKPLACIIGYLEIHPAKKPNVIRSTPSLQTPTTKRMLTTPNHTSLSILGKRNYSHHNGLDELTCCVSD
Kind of experiment: affinity purification with mass spectrometry; 25 mg whole protein from HTR8/SVneo cells overexpressing MTA3V5 (2 biological samples), 10 ug MTA3 antibody or non-specific IgG, magnetic beads, on-bead trypsin digestion, LC-MS/MS (Q-Exactive), Mascot/Scaffold at 1% FDR.

For the substance CHD4 (from UniProt Q14839 1-1912), the binding result is “binds”. The same measure for YAP1 (from UniProt P46937 1-504): “binds”; for SMARCA5 (from UniProt O60264 1-1052): “binds”. In the case of CBX5 (from UniProt P45973 1-191) it was “binds”.
